The other results are listed elsewhere or left out.

Chains of the proteins cited; added tags and fusions are not shown. Lines headed by an entry give the natural chain unless they say otherwise; changes in a name come on top.
UniProt Q5SRE5: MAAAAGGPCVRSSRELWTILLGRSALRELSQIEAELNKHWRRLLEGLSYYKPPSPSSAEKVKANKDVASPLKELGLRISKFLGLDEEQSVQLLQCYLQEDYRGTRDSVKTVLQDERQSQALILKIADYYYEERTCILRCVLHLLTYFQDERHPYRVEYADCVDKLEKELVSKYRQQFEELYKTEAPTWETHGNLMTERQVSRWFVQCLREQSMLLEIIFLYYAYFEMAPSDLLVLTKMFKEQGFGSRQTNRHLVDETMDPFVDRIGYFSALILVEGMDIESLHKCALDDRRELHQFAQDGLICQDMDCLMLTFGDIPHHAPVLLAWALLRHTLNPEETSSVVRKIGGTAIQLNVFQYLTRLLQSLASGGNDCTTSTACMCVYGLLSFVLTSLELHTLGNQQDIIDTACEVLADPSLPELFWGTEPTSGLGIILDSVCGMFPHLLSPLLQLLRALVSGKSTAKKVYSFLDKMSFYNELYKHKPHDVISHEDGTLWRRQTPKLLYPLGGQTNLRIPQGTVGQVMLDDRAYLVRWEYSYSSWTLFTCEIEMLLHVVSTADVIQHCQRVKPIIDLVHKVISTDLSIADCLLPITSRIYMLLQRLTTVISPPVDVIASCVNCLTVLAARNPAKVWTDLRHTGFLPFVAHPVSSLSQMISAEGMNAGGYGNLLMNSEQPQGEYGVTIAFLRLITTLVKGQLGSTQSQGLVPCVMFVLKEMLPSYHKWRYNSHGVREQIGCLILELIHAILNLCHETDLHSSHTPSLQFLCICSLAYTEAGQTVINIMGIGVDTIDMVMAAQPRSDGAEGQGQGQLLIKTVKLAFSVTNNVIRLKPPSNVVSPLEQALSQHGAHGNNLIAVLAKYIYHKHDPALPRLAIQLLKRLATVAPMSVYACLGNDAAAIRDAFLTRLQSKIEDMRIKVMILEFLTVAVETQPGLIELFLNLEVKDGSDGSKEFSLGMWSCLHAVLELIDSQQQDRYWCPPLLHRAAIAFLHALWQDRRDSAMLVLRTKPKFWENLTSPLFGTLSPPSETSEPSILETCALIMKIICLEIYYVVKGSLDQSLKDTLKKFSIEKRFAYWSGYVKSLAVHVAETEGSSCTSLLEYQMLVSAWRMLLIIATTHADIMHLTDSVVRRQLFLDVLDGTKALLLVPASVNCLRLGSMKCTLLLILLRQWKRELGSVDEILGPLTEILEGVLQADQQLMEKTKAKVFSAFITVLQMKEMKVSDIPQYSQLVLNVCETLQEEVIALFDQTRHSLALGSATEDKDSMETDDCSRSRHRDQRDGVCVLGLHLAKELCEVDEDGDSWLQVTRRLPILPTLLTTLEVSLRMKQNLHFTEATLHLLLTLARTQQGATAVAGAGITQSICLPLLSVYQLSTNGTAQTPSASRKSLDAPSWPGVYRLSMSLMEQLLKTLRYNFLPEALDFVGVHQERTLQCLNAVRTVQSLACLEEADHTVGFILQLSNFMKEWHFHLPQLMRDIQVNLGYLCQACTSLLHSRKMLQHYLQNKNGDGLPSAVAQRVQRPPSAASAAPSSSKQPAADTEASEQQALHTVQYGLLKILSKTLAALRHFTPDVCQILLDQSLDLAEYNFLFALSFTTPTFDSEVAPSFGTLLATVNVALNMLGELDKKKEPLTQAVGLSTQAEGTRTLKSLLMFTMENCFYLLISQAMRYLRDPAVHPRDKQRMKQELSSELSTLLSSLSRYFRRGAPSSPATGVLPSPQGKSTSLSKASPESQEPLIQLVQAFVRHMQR
UniProt Q9BRP4: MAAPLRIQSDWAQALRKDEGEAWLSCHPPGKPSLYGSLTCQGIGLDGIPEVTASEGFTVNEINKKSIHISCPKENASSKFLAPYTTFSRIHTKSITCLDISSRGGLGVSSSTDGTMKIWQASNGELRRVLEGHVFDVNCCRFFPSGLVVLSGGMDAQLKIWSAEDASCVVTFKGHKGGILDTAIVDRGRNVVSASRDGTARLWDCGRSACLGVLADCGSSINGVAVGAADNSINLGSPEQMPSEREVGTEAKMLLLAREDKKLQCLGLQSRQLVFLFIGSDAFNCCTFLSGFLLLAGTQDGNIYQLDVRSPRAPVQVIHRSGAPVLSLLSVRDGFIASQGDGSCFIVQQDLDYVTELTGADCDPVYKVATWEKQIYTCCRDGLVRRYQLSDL
UniProt Q9BXS6: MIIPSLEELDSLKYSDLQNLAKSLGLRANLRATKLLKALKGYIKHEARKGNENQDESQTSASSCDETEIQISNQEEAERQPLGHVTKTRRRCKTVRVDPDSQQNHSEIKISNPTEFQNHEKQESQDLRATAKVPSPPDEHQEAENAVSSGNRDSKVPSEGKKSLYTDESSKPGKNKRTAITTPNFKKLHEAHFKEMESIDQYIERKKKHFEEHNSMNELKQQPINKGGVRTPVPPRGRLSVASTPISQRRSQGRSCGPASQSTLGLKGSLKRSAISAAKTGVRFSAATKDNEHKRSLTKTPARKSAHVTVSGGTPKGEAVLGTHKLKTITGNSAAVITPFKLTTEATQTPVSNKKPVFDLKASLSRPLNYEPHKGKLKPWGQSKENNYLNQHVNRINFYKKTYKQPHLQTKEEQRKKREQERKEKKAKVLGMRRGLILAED
UniProt P13674: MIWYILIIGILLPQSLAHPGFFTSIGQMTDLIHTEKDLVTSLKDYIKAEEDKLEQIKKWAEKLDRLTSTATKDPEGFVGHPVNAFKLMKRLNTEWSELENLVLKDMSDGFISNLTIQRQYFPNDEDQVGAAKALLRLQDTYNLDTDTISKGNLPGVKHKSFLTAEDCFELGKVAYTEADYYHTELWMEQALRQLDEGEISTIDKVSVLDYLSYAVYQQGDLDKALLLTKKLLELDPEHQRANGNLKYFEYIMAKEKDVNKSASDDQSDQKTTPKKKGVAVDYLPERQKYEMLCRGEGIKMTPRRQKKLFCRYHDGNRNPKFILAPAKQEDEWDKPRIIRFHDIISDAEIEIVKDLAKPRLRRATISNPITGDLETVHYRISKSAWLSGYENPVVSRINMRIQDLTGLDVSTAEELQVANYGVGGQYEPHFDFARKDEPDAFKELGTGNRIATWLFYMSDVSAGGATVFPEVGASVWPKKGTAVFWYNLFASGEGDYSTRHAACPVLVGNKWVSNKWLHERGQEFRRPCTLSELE
UniProt Q96SU4: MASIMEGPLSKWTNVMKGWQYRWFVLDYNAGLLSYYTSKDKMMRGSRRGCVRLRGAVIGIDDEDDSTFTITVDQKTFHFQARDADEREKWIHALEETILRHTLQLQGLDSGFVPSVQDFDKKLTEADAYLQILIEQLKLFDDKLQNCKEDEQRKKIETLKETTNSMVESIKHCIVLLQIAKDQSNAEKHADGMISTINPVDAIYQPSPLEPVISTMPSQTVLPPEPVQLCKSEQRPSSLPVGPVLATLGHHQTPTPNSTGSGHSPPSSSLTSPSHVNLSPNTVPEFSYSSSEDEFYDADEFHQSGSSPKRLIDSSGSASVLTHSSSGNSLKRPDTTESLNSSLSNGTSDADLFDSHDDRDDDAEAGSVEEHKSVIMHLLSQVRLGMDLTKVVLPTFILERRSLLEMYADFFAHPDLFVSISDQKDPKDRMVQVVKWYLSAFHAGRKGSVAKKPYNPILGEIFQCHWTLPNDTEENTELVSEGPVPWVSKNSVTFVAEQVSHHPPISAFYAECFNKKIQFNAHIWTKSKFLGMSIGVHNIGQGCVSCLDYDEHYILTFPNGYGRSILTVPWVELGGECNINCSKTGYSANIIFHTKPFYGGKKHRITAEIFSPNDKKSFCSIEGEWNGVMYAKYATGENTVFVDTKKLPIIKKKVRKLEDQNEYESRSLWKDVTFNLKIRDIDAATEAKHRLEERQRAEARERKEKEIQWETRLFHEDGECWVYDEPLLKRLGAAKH
UniProt Q96CB9: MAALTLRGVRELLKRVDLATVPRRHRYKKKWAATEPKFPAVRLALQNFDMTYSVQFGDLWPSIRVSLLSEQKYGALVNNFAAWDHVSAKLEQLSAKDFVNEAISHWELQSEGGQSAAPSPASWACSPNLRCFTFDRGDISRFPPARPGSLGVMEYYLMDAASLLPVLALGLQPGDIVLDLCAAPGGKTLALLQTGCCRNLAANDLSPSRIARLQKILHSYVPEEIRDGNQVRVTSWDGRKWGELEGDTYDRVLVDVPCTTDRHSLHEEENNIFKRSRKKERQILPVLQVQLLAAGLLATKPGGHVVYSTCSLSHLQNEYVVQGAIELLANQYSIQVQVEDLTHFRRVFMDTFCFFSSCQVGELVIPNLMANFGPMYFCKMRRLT
UniProt Q99567: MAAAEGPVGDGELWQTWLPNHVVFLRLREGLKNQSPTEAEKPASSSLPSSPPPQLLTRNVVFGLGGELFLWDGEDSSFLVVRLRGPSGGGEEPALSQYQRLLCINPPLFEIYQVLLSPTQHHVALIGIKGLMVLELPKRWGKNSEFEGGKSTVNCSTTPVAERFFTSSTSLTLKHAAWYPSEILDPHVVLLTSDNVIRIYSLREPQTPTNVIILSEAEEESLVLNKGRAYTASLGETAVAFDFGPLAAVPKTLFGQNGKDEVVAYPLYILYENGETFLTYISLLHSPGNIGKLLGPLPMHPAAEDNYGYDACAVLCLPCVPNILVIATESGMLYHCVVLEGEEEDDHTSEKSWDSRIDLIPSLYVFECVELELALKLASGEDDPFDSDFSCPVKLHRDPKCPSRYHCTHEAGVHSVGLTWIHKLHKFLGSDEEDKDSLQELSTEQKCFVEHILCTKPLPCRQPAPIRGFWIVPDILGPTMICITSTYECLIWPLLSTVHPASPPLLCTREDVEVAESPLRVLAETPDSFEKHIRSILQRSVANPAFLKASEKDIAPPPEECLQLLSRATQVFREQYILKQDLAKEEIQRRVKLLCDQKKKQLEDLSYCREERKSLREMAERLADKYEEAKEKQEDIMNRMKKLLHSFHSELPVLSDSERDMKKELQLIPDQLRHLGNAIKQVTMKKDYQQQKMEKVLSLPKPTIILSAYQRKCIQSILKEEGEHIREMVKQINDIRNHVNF
UniProt Q8TCD5: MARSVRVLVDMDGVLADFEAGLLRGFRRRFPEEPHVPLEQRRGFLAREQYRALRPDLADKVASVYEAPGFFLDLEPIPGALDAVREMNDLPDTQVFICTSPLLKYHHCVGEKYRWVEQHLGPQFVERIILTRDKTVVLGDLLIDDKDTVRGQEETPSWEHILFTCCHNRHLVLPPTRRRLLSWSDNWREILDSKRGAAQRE
UniProt Q8WUM0: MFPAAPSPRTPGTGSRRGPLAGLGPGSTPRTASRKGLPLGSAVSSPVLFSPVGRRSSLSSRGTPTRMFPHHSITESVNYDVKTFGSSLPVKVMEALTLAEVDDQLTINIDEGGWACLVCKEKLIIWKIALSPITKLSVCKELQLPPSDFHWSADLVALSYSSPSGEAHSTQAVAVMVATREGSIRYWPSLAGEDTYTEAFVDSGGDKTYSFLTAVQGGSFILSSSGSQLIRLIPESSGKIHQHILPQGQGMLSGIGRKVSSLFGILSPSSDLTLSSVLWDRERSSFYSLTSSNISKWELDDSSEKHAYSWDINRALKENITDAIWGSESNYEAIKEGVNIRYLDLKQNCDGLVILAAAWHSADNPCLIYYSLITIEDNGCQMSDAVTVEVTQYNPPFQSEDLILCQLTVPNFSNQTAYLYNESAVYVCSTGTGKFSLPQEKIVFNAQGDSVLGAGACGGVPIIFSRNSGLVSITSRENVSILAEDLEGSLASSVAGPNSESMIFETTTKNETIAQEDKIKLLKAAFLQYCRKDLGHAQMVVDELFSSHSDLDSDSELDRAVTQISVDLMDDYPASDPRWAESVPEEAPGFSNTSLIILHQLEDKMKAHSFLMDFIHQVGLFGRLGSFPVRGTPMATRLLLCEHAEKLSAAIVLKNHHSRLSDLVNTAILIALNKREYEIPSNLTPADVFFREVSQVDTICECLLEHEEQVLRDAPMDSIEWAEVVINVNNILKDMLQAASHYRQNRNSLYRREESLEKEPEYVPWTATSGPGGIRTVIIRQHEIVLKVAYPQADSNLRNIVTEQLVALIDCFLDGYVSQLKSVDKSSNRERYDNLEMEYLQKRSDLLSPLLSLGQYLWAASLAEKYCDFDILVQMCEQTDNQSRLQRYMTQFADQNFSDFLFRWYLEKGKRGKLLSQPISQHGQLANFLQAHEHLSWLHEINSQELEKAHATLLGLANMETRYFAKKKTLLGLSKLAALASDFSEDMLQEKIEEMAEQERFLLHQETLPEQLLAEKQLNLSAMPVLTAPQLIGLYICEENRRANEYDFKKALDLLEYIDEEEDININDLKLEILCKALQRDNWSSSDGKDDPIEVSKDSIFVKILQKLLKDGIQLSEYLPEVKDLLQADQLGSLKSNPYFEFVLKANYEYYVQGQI
UniProt Q9BV86: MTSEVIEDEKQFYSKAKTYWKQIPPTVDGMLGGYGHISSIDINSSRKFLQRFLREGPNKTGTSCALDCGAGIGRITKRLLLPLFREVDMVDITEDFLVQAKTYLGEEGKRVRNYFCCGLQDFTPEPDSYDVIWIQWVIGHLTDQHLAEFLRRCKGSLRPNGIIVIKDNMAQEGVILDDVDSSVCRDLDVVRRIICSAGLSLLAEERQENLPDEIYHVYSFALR

Compound in the first experiment: CC1=C(SC2=C1C(=N[C@H](C3=NN=C(N32)C)CC(=O)N)C4=CC=C(C=C4)Cl)C
Briefly: log2 fold change, soluble protein after heating vs DMSO (PISA); higher = thermal stabilisation; K562 cells, 10 uM, 30 min; active = over 0.2 and 3.5 SD of the protein, either way, in both replicates (recomputed). The method in brief:
(§1)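 K562 cells (2×10^6 cells/mL) were treated with 10 μM compound for 30 min, and aliquots were heated for 3 min over 48°C-58°C. Pooled aliquots were extracted in PBS with 0.5% NP-40 at 4°C, and the supernatant after 21,000xg for 90 min was measured by TMTpro 16plex LC-MS/MS with channel sums equalised. Reported thermal stability, relative to control samples and from duplicates, is a log2 fold change.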
Consider NUP43 (UniProt Q8NFH3), for which the log2 fold change is inactive: -0.012.

Regarding NUP188 (UniProt Q5SRE5), the log2 fold change is inactive: 0.011.

On to NUP205 (UniProt Q92621), for which the log2 fold change is inactive: 0.035.

On to NUCB1 (UniProt Q02818), for which the log2 fold change was inactive: 0.031.

Turning to OXCT1 (UniProt P55809), the log2 fold change was inactive: 0.03.

Take NUTF2 (UniProt P61970): the log2 fold change was inactive: 0.078.

In the case of NT5DC2 isoform 2 (UniProt Q9H857), the log2 fold change was inactive: 0.079.

Regarding PAAF1 (UniProt Q9BRP4), the log2 fold change is inactive: 0.043.

For NUCB2 (UniProt P80303), the log2 fold change is inactive: 0.014.

In the case of NUBPL (UniProt Q8TB37), the log2 fold change was inactive: -0.061.

OTUD5 isoform 5 (UniProt Q96G74): the log2 fold change is inactive: 0.069.

Regarding NUSAP1 (UniProt Q9BXS6), the log2 fold change was inactive: -0.197.

For NUDT5 (UniProt Q9UKK9), the log2 fold change was inactive: 0.008.

In the case of P4HA1 isoform 2 (UniProt P13674), the log2 fold change is inactive: -0.032.

With OSGEP (UniProt Q9NPF4), the log2 fold change was inactive: -0.002.

As for OCIAD1 (UniProt Q9NX40), the log2 fold change was inactive: 0.012.

On to OSBPL9 (UniProt Q96SU4), for which the log2 fold change was inactive: -0.043.

For NT5C3B (UniProt Q969T7), the log2 fold change is inactive: -0.023.

For NUP58 (UniProt Q9BVL2), the log2 fold change was inactive: 0.036.

NSUN4 (UniProt Q96CB9): the log2 fold change was inactive: 0.013.

For NT5C2 (UniProt P49902), the log2 fold change was inactive: 0.049.

As to NUP88 (UniProt Q99567), the log2 fold change is inactive: -0.069.

As for NUDT2 (UniProt P50583), the log2 fold change is inactive: 0.053.

As to NT5C (UniProt Q8TCD5), the log2 fold change is inactive: 0.02.

Regarding OIP5 (UniProt O43482), the log2 fold change is inactive: 0.074.

For OGFOD1 (UniProt Q8N543), the log2 fold change was inactive: 0.047.

Turning to NUP133 (UniProt Q8WUM0), the log2 fold change was inactive: -0.033.

Regarding NSRP1 (UniProt Q9H0G5), the log2 fold change is inactive: -0.049.

As to NUP54 (UniProt Q7Z3B4), the log2 fold change was inactive: 0.035.

As to NUMB (UniProt P49757), the log2 fold change was inactive: 0.035.

As to OTC (UniProt P00480), the log2 fold change is inactive: 0.09.

Consider NTMT1 (UniProt Q9BV86), for which the log2 fold change was inactive: 0.034.

As for NUMA1 (UniProt Q14980), the log2 fold change was inactive: -0.05.

Compound in a further experiment: CC1=C2C(=CC=C1)N=C(N(C2=O)C3=CC=CC=C3C)CN4C=NC5=C(N=CN=C54)N
Described as above. The method in brief:
as §1
On to NUP43 (UniProt Q8NFH3), for which the log2 fold change was inactive: 0.011.

Take NUP188 (UniProt Q5SRE5): the log2 fold change was inactive: 0.061.

In the case of NUP205 (UniProt Q92621), the log2 fold change is inactive: 0.08.

In the case of NUCB1 (UniProt Q02818), the log2 fold change is inactive: -0.009.

For the target OXCT1 (UniProt P55809), the log2 fold change was inactive: 0.025.

Consider NUTF2 (UniProt P61970), for which the log2 fold change is inactive: 0.

As for NT5DC2 isoform 2 (UniProt Q9H857), the log2 fold change is inactive: 0.05.

PAAF1 (UniProt Q9BRP4): the log2 fold change is inactive: 0.076.

In the case of NUCB2 (UniProt P80303), the log2 fold change was inactive: 0.023.

With NUBPL (UniProt Q8TB37), the log2 fold change is inactive: 0.006.

Turning to OTUD5 isoform 5 (UniProt Q96G74), the log2 fold change is inactive: -0.033.

NUSAP1 (UniProt Q9BXS6): the log2 fold change is inactive: 0.119.

Turning to NUDT5 (UniProt Q9UKK9), the log2 fold change was inactive: -0.065.

With P4HA1 isoform 2 (UniProt P13674), the log2 fold change was inactive: 0.006.

On to OSGEP (UniProt Q9NPF4), for which the log2 fold change was inactive: 0.045.

Turning to OCIAD1 (UniProt Q9NX40), the log2 fold change is inactive: -0.007.

For the target OSBPL9 (UniProt Q96SU4), the log2 fold change is inactive: -0.042.

For NT5C3B (UniProt Q969T7), the log2 fold change was inactive: 0.

For NUP58 (UniProt Q9BVL2), the log2 fold change was inactive: 0.015.

Turning to NSUN4 (UniProt Q96CB9), the log2 fold change was inactive: -0.06.

As to NT5C2 (UniProt P49902), the log2 fold change is inactive: 0.033.

NUP88 (UniProt Q99567): the log2 fold change is inactive: -0.003.

In the case of NUDT2 (UniProt P50583), the log2 fold change was inactive: -0.072.

For the target NT5C (UniProt Q8TCD5), the log2 fold change is inactive: 0.017.

Turning to OIP5 (UniProt O43482), the log2 fold change was inactive: 0.088.

For OGFOD1 (UniProt Q8N543), the log2 fold change was inactive: 0.041.

As for NUP133 (UniProt Q8WUM0), the log2 fold change is inactive: 0.047.

For the target NSRP1 (UniProt Q9H0G5), the log2 fold change was inactive: -0.047.

Consider NUP54 (UniProt Q7Z3B4), for which the log2 fold change was inactive: 0.031.

For the target NUMB (UniProt P49757), the log2 fold change is inactive: 0.046.

Take OTC (UniProt P00480): the log2 fold change is inactive: 0.24.

Consider NTMT1 (UniProt Q9BV86), for which the log2 fold change is inactive: 0.079.

Consider NUMA1 (UniProt Q14980), for which the log2 fold change was inactive: -0.009.

Compound in a further experiment: Cc1sc2c(c1C)C(c1ccc(Cl)cc1)=N[C@@H](CC(=O)OC(C)(C)C)c1nnc(C)n1-2
The experiment is described as above. The method in brief:
as §1
For the target NUP43 (UniProt Q8NFH3), the log2 fold change was inactive: -0.032.

With NUP188 (UniProt Q5SRE5), the log2 fold change is inactive: -0.018.

For NUP205 (UniProt Q92621), the log2 fold change is inactive: -0.043.

Regarding NUCB1 (UniProt Q02818), the log2 fold change is inactive: 0.014.

With OXCT1 (UniProt P55809), the log2 fold change is inactive: 0.01.

On to NUTF2 (UniProt P61970), for which the log2 fold change is inactive: -0.221.

With NT5DC2 isoform 2 (UniProt Q9H857), the log2 fold change is inactive: 0.008.

Take PAAF1 (UniProt Q9BRP4): the log2 fold change is inactive: -0.014.

Turning to NUCB2 (UniProt P80303), the log2 fold change is inactive: -0.01.

As for NUBPL (UniProt Q8TB37), the log2 fold change is inactive: -0.038.

In the case of OTUD5 isoform 5 (UniProt Q96G74), the log2 fold change was inactive: 0.067.

Take NUSAP1 (UniProt Q9BXS6): the log2 fold change was inactive: 0.116.

Regarding NUDT5 (UniProt Q9UKK9), the log2 fold change is inactive: 0.011.

For the target P4HA1 isoform 2 (UniProt P13674), the log2 fold change is inactive: -0.05.

In the case of OSGEP (UniProt Q9NPF4), the log2 fold change is inactive: 0.008.

With OCIAD1 (UniProt Q9NX40), the log2 fold change was inactive: -0.003.

Turning to OSBPL9 (UniProt Q96SU4), the log2 fold change was inactive: 0.107.

NT5C3B (UniProt Q969T7): the log2 fold change is inactive: -0.071.

As for NUP58 (UniProt Q9BVL2), the log2 fold change was inactive: -0.012.

Consider NSUN4 (UniProt Q96CB9), for which the log2 fold change was inactive: 0.068.

Regarding NT5C2 (UniProt P49902), the log2 fold change is inactive: -0.014.

With NUP88 (UniProt Q99567), the log2 fold change was inactive: -0.004.

Take NUDT2 (UniProt P50583): the log2 fold change is inactive: 0.

Regarding NT5C (UniProt Q8TCD5), the log2 fold change was inactive: -0.012.

For OIP5 (UniProt O43482), the log2 fold change is inactive: -0.05.

For OGFOD1 (UniProt Q8N543), the log2 fold change was inactive: -0.015.

Turning to NUP133 (UniProt Q8WUM0), the log2 fold change is inactive: -0.008.

On to NSRP1 (UniProt Q9H0G5), for which the log2 fold change is inactive: 0.028.

As to NUP54 (UniProt Q7Z3B4), the log2 fold change is inactive: -0.027.

As for NUMB (UniProt P49757), the log2 fold change was inactive: 0.023.

Take OTC (UniProt P00480): the log2 fold change was inactive: 0.126.

NTMT1 (UniProt Q9BV86): the log2 fold change was inactive: -0.118.

For NUMA1 (UniProt Q14980), the log2 fold change is inactive: 0.022.

Values taken from the supplement of paper PMC10849652.
